PubChem BioAssay (NCATS)
This list was built around the results that the source calls inconclusive (neither active nor inactive); the mix of calls is not that of the screen. For some assays here: Potencies beside an inconclusive call are fits to weak or partial responses and may not hold up. The source made the active and inactive calls. Unless noted, calls come from the whole dose curve; as a rule, active = well fitted curve in the direction sought with a large enough effect; inconclusive = small, poorly fitted or top-dose-only effect, or another doubt; inactive = no such curve, though single readings can be large; an effect the other way counts as inactive or inconclusive.

The chains behind the UniProt entries cited, without tags or fusion partners. Where a name states a change or a piece, a line headed by the entry shows the natural chain unless it says otherwise.
UniProt P08684, whole entry, looked up: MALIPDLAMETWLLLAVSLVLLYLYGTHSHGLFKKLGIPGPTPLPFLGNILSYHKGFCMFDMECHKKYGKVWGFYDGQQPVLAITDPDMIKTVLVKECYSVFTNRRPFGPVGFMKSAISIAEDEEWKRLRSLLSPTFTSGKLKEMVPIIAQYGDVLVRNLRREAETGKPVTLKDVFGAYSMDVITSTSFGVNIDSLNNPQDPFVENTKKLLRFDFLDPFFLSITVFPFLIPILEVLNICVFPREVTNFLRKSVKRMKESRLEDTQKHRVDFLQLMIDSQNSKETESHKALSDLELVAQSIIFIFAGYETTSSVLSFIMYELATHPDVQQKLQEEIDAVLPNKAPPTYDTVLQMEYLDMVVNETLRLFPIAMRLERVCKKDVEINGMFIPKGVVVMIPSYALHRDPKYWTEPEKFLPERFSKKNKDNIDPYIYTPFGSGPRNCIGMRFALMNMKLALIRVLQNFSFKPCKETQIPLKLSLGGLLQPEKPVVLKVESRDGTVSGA
UniProt P08482: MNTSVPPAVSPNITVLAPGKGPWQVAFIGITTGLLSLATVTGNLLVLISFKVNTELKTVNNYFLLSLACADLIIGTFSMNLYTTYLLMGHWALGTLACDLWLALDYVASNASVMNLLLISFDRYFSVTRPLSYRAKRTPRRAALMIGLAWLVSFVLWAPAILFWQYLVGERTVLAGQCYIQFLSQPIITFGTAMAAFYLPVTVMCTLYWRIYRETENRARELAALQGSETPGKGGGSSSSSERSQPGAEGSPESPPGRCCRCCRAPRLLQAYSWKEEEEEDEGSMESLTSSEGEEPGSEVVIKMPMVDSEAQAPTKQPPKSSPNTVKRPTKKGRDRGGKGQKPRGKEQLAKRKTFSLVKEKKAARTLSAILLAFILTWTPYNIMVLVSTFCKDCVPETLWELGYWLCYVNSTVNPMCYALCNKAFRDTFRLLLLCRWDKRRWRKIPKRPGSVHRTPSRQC
UniProt P27695, whole entry, looked up: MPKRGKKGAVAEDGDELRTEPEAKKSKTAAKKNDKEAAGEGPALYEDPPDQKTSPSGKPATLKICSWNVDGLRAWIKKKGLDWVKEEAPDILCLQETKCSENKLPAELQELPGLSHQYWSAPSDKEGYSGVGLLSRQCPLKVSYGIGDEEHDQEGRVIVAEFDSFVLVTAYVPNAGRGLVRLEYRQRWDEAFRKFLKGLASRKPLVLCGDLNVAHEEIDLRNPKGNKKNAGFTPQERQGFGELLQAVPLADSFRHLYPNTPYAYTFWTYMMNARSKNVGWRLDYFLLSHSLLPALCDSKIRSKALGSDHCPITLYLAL
UniProt O15648: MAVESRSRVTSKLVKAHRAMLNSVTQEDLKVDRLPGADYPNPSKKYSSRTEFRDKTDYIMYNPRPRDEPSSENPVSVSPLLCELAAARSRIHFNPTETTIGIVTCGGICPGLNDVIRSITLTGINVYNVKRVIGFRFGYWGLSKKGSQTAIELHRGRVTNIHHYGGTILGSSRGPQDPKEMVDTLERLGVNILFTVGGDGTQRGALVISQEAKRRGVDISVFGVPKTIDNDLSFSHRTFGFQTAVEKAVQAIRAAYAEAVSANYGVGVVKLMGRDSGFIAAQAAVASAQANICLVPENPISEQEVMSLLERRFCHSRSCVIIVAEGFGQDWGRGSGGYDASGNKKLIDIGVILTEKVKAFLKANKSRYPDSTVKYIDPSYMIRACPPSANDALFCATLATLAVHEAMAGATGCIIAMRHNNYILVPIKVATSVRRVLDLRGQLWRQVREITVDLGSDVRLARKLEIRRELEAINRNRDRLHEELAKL
UniProt P83916, whole entry, looked up: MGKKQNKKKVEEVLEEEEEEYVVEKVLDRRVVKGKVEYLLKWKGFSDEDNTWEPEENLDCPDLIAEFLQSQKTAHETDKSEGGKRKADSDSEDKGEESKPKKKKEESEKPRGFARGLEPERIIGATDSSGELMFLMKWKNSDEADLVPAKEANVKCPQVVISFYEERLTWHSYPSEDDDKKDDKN
UniProt P21728, whole entry, looked up: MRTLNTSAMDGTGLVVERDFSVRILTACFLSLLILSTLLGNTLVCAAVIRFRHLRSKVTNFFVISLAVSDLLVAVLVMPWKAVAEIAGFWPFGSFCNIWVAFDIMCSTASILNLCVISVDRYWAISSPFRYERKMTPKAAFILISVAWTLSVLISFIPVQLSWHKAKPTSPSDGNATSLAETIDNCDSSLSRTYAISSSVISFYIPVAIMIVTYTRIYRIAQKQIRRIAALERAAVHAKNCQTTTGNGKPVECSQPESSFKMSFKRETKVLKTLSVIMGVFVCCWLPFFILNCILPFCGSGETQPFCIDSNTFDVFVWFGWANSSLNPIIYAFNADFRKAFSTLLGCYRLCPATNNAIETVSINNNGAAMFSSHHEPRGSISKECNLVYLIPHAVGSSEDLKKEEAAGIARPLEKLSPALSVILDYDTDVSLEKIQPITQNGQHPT
UniProt Q99828: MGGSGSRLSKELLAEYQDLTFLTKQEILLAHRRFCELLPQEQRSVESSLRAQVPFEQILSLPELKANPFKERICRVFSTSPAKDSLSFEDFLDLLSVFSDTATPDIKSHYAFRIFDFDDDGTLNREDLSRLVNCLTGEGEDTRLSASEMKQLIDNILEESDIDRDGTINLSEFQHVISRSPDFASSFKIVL

Tests used:
[1] = Stat Signaling Pathway (AID 446; active = well fitted curve in either direction with a large enough effect, not every such curve was filed as active; inconclusive = small, poorly fitted or top-dose-only effect, or another doubt;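 note: ME-180 cervical cancer cells given 40 pM IL-6 alongside compound; SIE-controlled beta-lactamase reporter measured as 460/530 nm FRET emission ratio; % is set by controls: 0 for no effect and ±100 for the full control effect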); conditions: ME-180 SIE beta-lactamase reporter, IL-6 stimulated, 5 h
Summary of the method: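 Reporter line: ME-180 cervical carcinoma, SIE-beta-lactamase. Treatment: compound with 40 pM IL-6, 5 hrs, 37 C, in low-serum OPTI-MEM with 10 mM HEPES pH 7.3. Detection: 460/530 nm fluorescence.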

[2] = molecular target: Cytochrome P450 3A4 (Homo sapiens) (UniProt P08684); test: qHTS Assay for Activators of Cytochrome P450 3A4 (AID 885); note: potency is the fitted concentration of half-maximal effect; nearly all actives have a fitted effect of over 65% in size
Summary of the method: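 Signal was normalized against complete inhibition by 57 uM ketoconazole. The reaction used 20nM CYP3A4 with 25uM Luciferin-PPXE, 10-min compound preincubation and a 60-min NADPH-supported step at RT.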

[3] = qHTS Assay for Identification of Small Molecule Antagonists for NFkB Signaling Pathway (AID 895; active = well fitted inhibition curve with a large enough effect in the signal ratio, with a control signal flat, not every such curve was filed as active; inconclusive = small, poorly fitted or top-dose-only effect, or effect the other way, or a change in a side signal; the % refers to the signal ratio; note: potency is the fitted concentration of half-maximal effect); conditions: NFkB beta-lactamase reporter cells, FRET ratio 460/530, stimulated with 10 pM TNF alpha; activity change, negative = inhibition: at 38.3 µM (top of the series)
Summary of the method: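 Beta-lactamase reporter read-out (460 and 530 nm emission ratio, 405 nm excitation, 2 hrs substrate loading RT) after 5 hr stimulation with 10 pM TNF alpha in compound-treated NFkB-bla ME-180 cells in low-serum medium.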

[4] = molecular target: Muscarinic acetylcholine receptor M1 (Rattus norvegicus) (UniProt P08482); test: qHTS Assay for Antagonists of Acetylcholine Muscarinic M1 Receptor: Kinetic Measurement of Intracellular Calcium Response (AID 943); note: potency is the fitted concentration of half-maximal effect; nearly all actives have a fitted effect of over 75% in size
Summary of the method: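 Rat M1-CHO cells, 2000/well, overnight → Fluo-4 no-wash dye with probenecid, 1 h 37C → compound 10 min, room temp → basal read 6 s → carbachol EC80 (100 nM) → 4 min kinetic read; peak/basal.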

[5] = molecular target: Muscarinic acetylcholine receptor M1 (Rattus norvegicus) (UniProt P08482); test: qHTS Assay for Antagonists of Acetylcholine Muscarinic M1 Receptor: Measurement of IP-One Response (AID 944); note: nearly all actives have a fitted effect of over 75% in size
[6] = molecular target: Endonuclease 4 (Escherichia coli (strain K12)) (UniProt P0A6C1); test: Counterscreen for APE1 Inhibitors: qHTS Validation Assay for Inhibitors of Endonuclease IV (AID 1708); note: potency is the fitted concentration of half-maximal effect
Summary of the method: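 qHTS concentration-response format; LOPAC1280 tested under APE1-screen conditions. 2 nM enzyme, 15 min compound preincubation at RT, then 50 nM TAMRA/BHQ-2 abasic substrate; kinetic fluorescence read, three reads at 60 s intervals.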

[7] = qHTS for differential inhibitors of proliferation of Plasmodium falciparum line 3D7 (AID 1876);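 note: parasite growth measured after three days of culture; 0% = vehicle wells and -100% = reference inhibitor wells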
[8] = qHTS Assay for Modulators of Human Peripheral Myelin Protein 22 (PMP22) Expression/Activity (AID 1967; active = well fitted curve in the direction sought with a large enough effect in the signal ratio; inconclusive = small, poorly fitted or top-dose-only effect, or effect the other way, or a change in a side signal; inactive = no such curve, though single readings can be large or run the other way; the % refers to the signal ratio;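 note: 0% = untreated cells and 100% end not stated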); conditions: Cell-based PMP22 reporter, dual-color luciferase ratio, mouse Pmp22 promoter in mouse Schwann cells; activity change (ratio): at 115 µM (top of the series), 0% = compound-free control cells
Summary of the method: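 Mouse MSC80 Schwann cells carrying Pmp22 promoter–green click beetle luciferase plus EF-alpha–red luciferase control, dosed 24 h at 37 °C. Dual-filter luminescence, overlap-corrected; %Activity from green/red ratio normalised to untreated cells, concentration-response curves fitted.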

[9] = molecular target: DNA repair nuclease/redox regulator APEX1 (Homo sapiens) (UniProt P27695); test: Confirmation qHTS Assay for Inhibitors of the Human Apurinic/apyrimidinic Endonuclease 1 (APE1) (AID 2572); note: potency is the fitted concentration of half-maximal effect; nearly all actives have a fitted effect of over 30% in size
Summary of the method: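 Enzyme and test compound were incubated for 15 min at room temperature, after which a 50 nM (final) double-stranded abasic-site substrate bearing 5'-TAMRA and 3'-BHQ-2 was added. Incision was followed as fluorescence increase over three reads.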

[10] = High Content Imaging Cell-Based qHTS for Inhibitors of the mTORC1 Signaling Pathway in MEF Cells (AID 2667);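 note: Tsc2-/- p53-/- MEFs stably re-expressing wild-type Tsc2 exposed 24 h; plate controls were DMSO wells for no effect and rapamycin control wells for full effect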
Summary of the method: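 Immunofluorescence for rpS6 phosphorylation in MEFs of Tsc2-/-, p53-/- background rescued with WT Tsc2. Compound exposure lasted 24 hrs. Inhibition was scored against rapamycin-treated control wells.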

[11] = molecular target: ATP-dependent 6-phosphofructokinase (Trypanosoma brucei brucei) (UniProt O15648); test: qHTS Validation Assay to Find Inhibitors of T. brucei phosphofructokinase (AID 485368); note: potency is the fitted concentration of half-maximal effect
Summary of the method: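 Steps: substrate mix (0.5 mM F6P, 0.1 mM ATP, MgCl2, TEA pH 8.0); compound; 1.25 nM T. brucei PFK; 45 min RT; ATP depletion 10 min; ADP-to-ATP detection 10 min; luminescence read; curve fitting and classification.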

[12] = molecular target: Chromobox protein homolog 1 (Homo sapiens) (UniProt P83916); test: qHTS Validation Assay for Inhibitors of HP1-beta Chromodomain Interactions with Methylated Histone Tails (AID 488953); note: potency is the fitted concentration of half-maximal effect; nearly all actives have a fitted effect of over 50% in size
Summary of the method: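 50 nM HP1-beta + 50 nM biotin-H3(1-18)K9me3, PBS pH 7.4, 0.01% Tween-20, 30 min RT; compound added, 30 min RT; AlphaScreen beads 10 ug/mL final, 30 min dark; luminescence read.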

[13] = molecular target: D(1A) dopamine receptor (Homo sapiens) (UniProt P21728); test: HTS Assay for Allosteric Agonists of the Human D1 Dopamine Receptor: Primary Screen for Potentiators (AID 488982); note: potency is the fitted concentration of half-maximal effect
Summary of the method: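 Calcium flux in an inducible, force-coupled HEK293 Trex D1 line (overnight at 30 C): agonist mode is the 180 s kinetic read after compound; potentiator mode is the following 180 s read after dopamine at EC20.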

[14] = molecular target: Calcium and integrin-binding protein 1 (Homo sapiens) (UniProt Q99828); test: Validation qHTS for Identification of Calcium Integrin Binding protein 1 (CIB1) Competitor (AID 1508618); note: % is set by controls: 0 for no effect and ±100 for the full control effect
Summary of the method: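 CIB1-GST (1 uM final) incubated 15 min at room temperature with compounds (up to 114 uM), then FITC-labelled alphaIIb peptide (100 nM) added. FP read (Ex 480/Em 540) after 15 min, pH 7.4 buffer containing 5 mM CaCl2.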

[15] = Primary qHTS for small molecule stabilizers of the endoplasmic reticulum resident proteome: Secreted ER Calcium Modulated Protein (SERCaMP) assay (AID 1508630); conditions: SH-SY5Y GLuc-SERCaMP (Gaussia luciferase released on ER calcium loss) secretion, thapsigargin, luminescence; activity change, negative = inhibition: at 38.4 µM (top of the series) unless noted; note: potency is the fitted concentration of half-maximal effect
Summary of the method: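 GLuc-SERCaMP-expressing SH-SY5Y cells, pretreated 16 h with compound, are challenged with thapsigargin to empty ER calcium stores; after 4 h, coelenterazine is added directly to the medium and luminescence is imaged.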

[16] = molecular target: Calcium and integrin-binding protein 1 (Homo sapiens) (UniProt Q99828); test: Primary qHTS for Identification of Calcium Integrin Binding Protein 1 (CIB1) Competitor (AID 1508620); note: potency is the fitted concentration of half-maximal effect;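 for activity change, negative = inhibition: GST tagged CIB1 binding a fluorescein labelled alphaIIb integrin peptide tracer; top concentration of the series differs between compounds; % is set by controls: 0 for no effect and ±100 for the full control effect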
Summary of the method: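 CIB1-GST (1 uM final) and compound incubated 15 min at room temperature before adding FITC-alphaIIb peptide tracer (100 nM final). Competition for binding read by fluorescence polarization (ex 480, em 540) after another 15 min at room temperature.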

Q: For `O=C(O)CC[C@@H](C(=O)O)N1C(=O)c2ccccc2C1=O`, which activity, negative = inhibition ([1]; at 7.69 µM (top of the series)) is on record?
A: The activity, negative = inhibition was inactive: 3.89%.

Q: And the activity, negative = inhibition ([1]; at 38 µM (top of the series))?
A: Its activity, negative = inhibition is inactive: 0.0495%.

Q: What about the Potency [2] of the same molecule?
A: Its Potency is inconclusive: 6.31 µM [activator, full curve].

Q: What about the Potency [3] of the same molecule?
A: Its Potency is inconclusive: 28.2 µM [inhibitor, single point].

Q: And the Potency [4]?
A: The Potency was active: 0.0251 µM.

Q: What about the Potency [5] of the same molecule?
A: Its Potency is “inactive”.

Q: What about the Potency [6] of the same molecule?
A: The Potency was inconclusive: 0.631 µM [inhibitor, full curve, poor fit].

Q: What about the Potency [7] of the same molecule?
A: The Potency was “inactive”.

Q: And the activity change (ratio) [8]?
A: The activity change (ratio) was inconclusive: 32.6%.

Q: What about the Potency [9] of the same molecule?
A: The Potency was inconclusive: 28.2 µM [inhibitor, partial curve, poor fit].

Q: And the Potency [10]?
A: The Potency was “inactive”.

Q: What about the Potency [11] of the same molecule?
A: Its Potency is inconclusive: 0.338 µM [activator, partial curve, poor fit].

Q: What about the Potency [12] of the same molecule?
A: Its Potency is inconclusive: 0.006 µM [inhibitor, full curve].

Q: What about the Potency [13] of the same molecule?
A: The Potency was inconclusive: 0.259 µM [activator, full curve, poor fit].

Q: And the Potency [14]?
A: Its Potency is “inactive”.

Q: And the Potency [15]?
A: The Potency was inconclusive: 10 µM [inhibitor, partial curve, poor fit].

Q: Which Potency [16] does the source give for `Cc1ccc2nc3sc(C(=O)NC4CCCCC4)cc3cc2c1` here?
A: Its Potency is “inactive”.

Q: For `O=C(Nc1ccc(Cl)c(Cl)c1)Nc1nnc(NC2CCNCC2)s1`, which Potency [16] is on record?
A: The Potency was “inactive”.

Q: For `CC1CCC2(C1)N=C(Nc1nc3ccccc3o1)NC1=C2C(=O)CCC1` (centres undefined), which Potency [16] is on record?
A: Its Potency is inconclusive: 31.6 µM [inhibitor, partial curve, poor fit].

Q: Which Potency [16] does the source give for `N[C@@H](Cc1ccc(O[S+](=O)([O-])c2cccc3cnccc23)cc1)C(=O)N1CCN(c2ccccc2)CC1` here?
A: The Potency was “inactive”.

Q: Which Potency [16] does the source give for `CCNC(=O)c1ccc(-c2ccc3ncnc(N4CCOCC4)c3c2)o1` here?
A: Its Potency is inconclusive: 28.2 µM [inhibitor, partial curve, poor fit].

Q: For `O=C1CCCC2=C1C(c1[nH]ncc1Br)N=C(Nc1nc3ccccc3o1)N2` (centres undefined), which Potency [16] is on record?
A: The Potency was inconclusive: 50.1 µM [inhibitor, partial curve, poor fit].

Q: For `O=C(c1ccc2c(c1)ncn2-c1ccc(C(F)(F)F)cc1)N1CCCCC1`, which Potency [16] is on record?
A: Its Potency is inconclusive: 44.7 µM [inhibitor, partial curve].

Q: Which Potency [16] does the source give for `Oc1ccccc1C1Nc2cccc3cccc(c23)N1` here?
A: Its Potency is inconclusive: 56.2 µM [inhibitor, partial curve].

Q: Which Potency [16] does the source give for `Cc1cc2c(s1)c1cnn(Cc3ccc(-c4ccccc4)cc3)c(=O)c1n2C` here?
A: The Potency was “inactive”.

Q: For `OCc1ccc(-c2ccc3ncnc(NCc4cccs4)c3c2)o1`, which Potency [16] is on record?
A: Its Potency is inconclusive: 25.1 µM [inhibitor, full curve].

Q: Which Potency [16] does the source give for `Cc1ccc(OCCn2c(CCNC(=O)c3ccc(N)cc3)nc3ccccc32)cc1` here?
A: Its Potency is inconclusive: 44.7 µM [inhibitor, full curve, poor fit].

Q: With `Cc1ccc(C)c(SC2=N[S+](=O)([O-])c3cc(C(=O)Nc4ccc5ncccc5c4)ccc32)c1` as the molecule, how does the Potency [16] read?
A: Its Potency is inconclusive: 44.7 µM [inhibitor, partial curve, poor fit].

Q: With `O=C(Cn1nc(-c2ccc(F)cc2)ccc1=O)NCCc1ccccc1` as the molecule, how does the Potency [16] read?
A: The Potency was inconclusive: 56.2 µM [inhibitor, partial curve, poor fit].
